# Experimental data published in US11571403B2, “Methods for the treatment of non-alcoholic steatohepatitis” (Eiger Biopharmaceuticals, Inc., priority 2016, dated 2023).
# Test system: STAM mouse model for NASH
# Experiment: Plasma LTB4, STAM mouse NASH model (Example 1)
# Format: in vivo
structure (smiles),measurement,setting,value
"CCCc1nc2c(C)cc(-c3nc4ccccc4n3C)cc2n1Cc1ccc(-c2ccccc2C(=O)O)cc1 [Telmisartan, telmisartan]",Plasma LTB4 relative to the control,"telmisartan (10 mg/kg QD, 7 to 9 weeks)",some tendency to increase plasma LTB4
"CC(C)C[C@H](NC(=O)[C@@H](O)[C@H](N)Cc1ccccc1)C(=O)O [Ubenimex, (2S)-2-[[(2S,3R)-3-amino-2-hydroxy-4-phenylbutanoyl]amino]-4-methylpentanoic acid]",Plasma LTB4 relative to the control,"ubenimex high dose (25 mg/kg BID, 7 to 9 weeks)",not statistically different
same,Plasma LTB4 relative to the control,"ubenimex low dose (5 mg/kg BID, 7 to 9 weeks)",some tendency to increase plasma LTB4
